Source: PubChem BioAssay AID540256 (National Center for Advancing Translational Sciences (NCATS), 2011)
The whole screen tested about 300,000 compounds, of which about 3,700 (1.2%) were called active. Inconclusive results, whose numbers are uncertain, are shown with a selection of clear calls. Calls follow the shape of the full dose curve; tested in HEK293 cells. Potencies beside an inconclusive call are fits to weak or partial responses and may not hold up.

Assay: qHTS for Inhibitors of binding or entry into cells for Lassa Virus; also: nearly all actives have a fitted effect of over 50% in size
Details: Lassa virus pseudotype entry inhibition, cell reporter; series mostly up to 37.9 µM
Potency is read from the fitted curve at half-maximal effect.

| SMILES | Potency |
| --- | --- |
| CCC(CC)c1nn2c(=O)cc(COc3ccc(NC(=O)c4cccc(Cl)c4)cc3)nc2s1 | inactive |
| COc1ccc(C)cc1NS(=O)(=O)c1ccc2c(c1)n(C)c(=O)n2C | inactive |
| Cc1ccc(S(=O)(=O)NCC(=O)N(c2ccccc2)C(C(=O)NCc2ccccc2)c2ccco2)cc1 (stereo unspecified) | inconclusive: 35.5 µM [inhibitor, single point] |
| CCCCOCC1CC(CC#CCN2CCCCC2)C(=O)O1 (stereo unspecified) | inconclusive: 0.517 µM [inhibitor, full curve, poor fit] |
| O=C(/C=C/NNC(=O)c1ccccc1O)c1ccccc1 | inconclusive: 15.8 µM [inhibitor, single point] |
| COCOCCn1cc(CN2CCS(=O)(=O)N(Cc3ccc(-c4ccc(OC)cc4)cc3)C(C(C)C)C2=O)nn1 (stereo unspecified) | inconclusive: 12.5 µM [inhibitor, partial curve, poor fit] |
| NC(Cc1ccc(N(CCCl)CCCl)cc1)C(=O)O (stereo unspecified) | active: 2.91 µM |
| CCNc1nc(NCc2ccccc2)nc(SCC(=O)Nc2ccccc2)n1 | inconclusive: 35.5 µM [inhibitor, single point] |
| O=C(c1cc(COc2ccc(F)cc2F)on1)N1CCSCC1 | inconclusive: 35.5 µM [inhibitor, single point] |
| CC1CN(C(=O)c2cc3cc([N+](=O)[O-])ccc3s2)CC(C)O1 (stereo unspecified) | inconclusive: 35.5 µM [inhibitor, single point] |
| Cc1cc(S(=O)(=O)N2CCOCC2)ccc1OCC(=O)NCC1CCCO1 (stereo unspecified) | inconclusive: 0.251 µM [activator, partial curve, poor fit] |
| COc1ccc(NC(=O)CSc2nc(-c3ccco3)cc(C(F)(F)F)n2)cc1 | inconclusive: 1.12 µM [inhibitor, full curve] |
| COc1ccc(CCNC(=O)c2cc(-c3ccncc3)nc3c(Cl)cccc23)cc1OC | inconclusive: 17.8 µM [inhibitor, single point] |
| COc1ccc2c(c1)CC/C(=C\C=C\c1ccccc1OC)C2=O | inconclusive: 29.1 µM [inhibitor, single point] |
| O=C(c1ccc2nc[nH]c2c1)N1CCN(c2cccc(C(F)(F)F)c2)CC1 | inconclusive: 35.5 µM [inhibitor, single point] |
| COc1ccc(CC2=C(O)c3ccccc3C(=O)C2=O)cc1 | inactive |
| CCOC(=O)Cn1nc(/C=C/c2ccc(C(C)C)cc2)ccc1=O | inconclusive: 22.4 µM [inhibitor, partial curve, poor fit] |
| COC(=O)c1ccccc1Sc1c(/C=N/OCc2ccc(Cl)cc2)c(C(F)(F)F)nn1C | inconclusive: 15.8 µM [inhibitor, partial curve, poor fit] |
| COc1ccc(Cc2nc3c4c(ncn3n2)Oc2c(ccc3ccccc23)C4c2ccc(OC)c(OC)c2)cc1 (stereo unspecified) | inconclusive: 12.6 µM [inhibitor, partial curve] |
| COc1ccc(S(=O)(=O)N2CCCN(Cc3cccc(F)c3)CC2)cc1 | inconclusive: 6.31 µM [activator, single point] |
| O=C(COn1nnc2ccccc21)N1CCN(Cc2ccccc2)CC1 | inactive |
| Cc1cccc(NS(=O)(=O)c2ccc(C(=O)NCC(c3ccco3)N3CCCCC3)cc2)c1C (stereo unspecified) | inconclusive: 35.5 µM [inhibitor, single point] |

| SMILES | Potency |
| --- | --- |
| CCCN1Cc2cccc(C(=O)Nc3cc(C)cc(C)c3)c2C1=O | inactive |
| CCOc1ccc(OCCSc2nnnn2-c2ccccc2)cc1 | inconclusive: 20.6 µM [inhibitor, partial curve, poor fit] |
| CN1C(=O)C(CC(=O)Nc2ccc(F)cc2)N(CCCc2ccccc2)C1=S (stereo unspecified) | inconclusive: 11.2 µM [inhibitor, partial curve] |
| CCOc1ccc(N2C(=O)CC(N)C2=O)cc1 (stereo unspecified) | inactive |
| Cc1c(C(=O)NCc2ccc3c(c2)OCO3)oc2ccc(S(=O)(=O)N3CCCCC3)cc12 | inconclusive: 16.4 µM [inhibitor, single point] |
| CCOC(=O)c1c(C)[nH]c(CCC(=O)Nc2cc(Cl)ccc2OC)c1C | inconclusive: 35.5 µM [inhibitor, partial curve, poor fit] |
| O=C(Cc1c[nH]c2ccccc12)N[C@@H](Cc1c[nH]c2ccccc12)C(=O)O | inactive |
| O=C(CN1C(=O)COc2ccc(S(=O)(=O)NC3CCCC3)cc21)Nc1ccc(Cl)cc1F | inactive |
| C#CCOc1c(Br)cc(/C=N/O)cc1OCC | inconclusive: 0.708 µM [activator, single point] |
| CC(=O)Nc1cccc(NC(=O)c2ccc(Br)cc2)c1 | inactive |
| CCOC(=O)c1c(C)oc2ccc(N(C(=O)c3ccncc3)S(=O)(=O)c3ccc(CC)cc3)cc12 | inconclusive: 35.5 µM [inhibitor, single point] |
| CCCc1c(C(=O)NNc2ccc(C)cc2)cnn1-c1ccccc1 | inconclusive: 0.562 µM [inhibitor, full curve, poor fit] |
| O=C1C(SCCO)=C(SCCO)C(=O)c2ccccc21 | active: 2.59 µM |
| O=C(CCSc1nc(-c2ccco2)cc(C(F)(F)F)n1)NCc1ccccn1 | inactive |
| COc1cc(C(=O)N2CCN=C2c2ccccc2)cc(OC)c1OC | inconclusive: 1.64 µM [activator, full curve, poor fit] |
| CC(C)(C)c1ccc(-c2nc(C#N)c(NCc3ccncc3)o2)cc1 | inactive |
| Cc1cc(C(=O)NCCC2=CCCCC2)no1 | inconclusive: 15.8 µM [activator, partial curve, poor fit] |
| Cc1cc(N2CCOCC2)nc2ccc(NC(=O)CCC(=O)N3CCN(c4ccccc4)CC3)cc12 | inconclusive: 22.4 µM [inhibitor, single point] |
| COc1ccccc1C(=O)Nc1nc2nc(C)cc(=O)n2[nH]1 | inactive |
| N#Cc1nc(COc2ccccc2)oc1N1CCN(Cc2ccccc2)CC1 | inconclusive: 25.1 µM [inhibitor, single point] |
| O=C(Nc1nnc(-c2ccccc2)s1)c1ccccc1O | inconclusive: 35.5 µM [inhibitor, single point] |
| Cc1ccc(CSc2nnc(SCC(=O)N/N=C/c3c(C)nn(-c4ccccc4)c3C)s2)cc1 | active: 8.2 µM |

Part of the list above, with bars between the fields.
SMILES | Potency
CC(C)(C)c1ccc(-c2nc(C#N)c(NCc3ccncc3)o2)cc1 | inactive
Cc1cc(C(=O)NCCC2=CCCCC2)no1 | inconclusive: 15.8 µM [activator, partial curve, poor fit]
Cc1cc(N2CCOCC2)nc2ccc(NC(=O)CCC(=O)N3CCN(c4ccccc4)CC3)cc12 | inconclusive: 22.4 µM [inhibitor, single point]

Going on with the list:

| SMILES | Potency |
| --- | --- |
| Cc1ccc(NC(=O)CSc2nc(=O)n(CCN(C)C)c3c2CCCC3)cc1Cl | inconclusive: 35.5 µM [inhibitor, single point] |
| C=CCOc1ccc(CNCc2cccnc2)cc1 | inconclusive: 1.26 µM [inhibitor, single point] |
| Cc1cc(O)c(C(C)C)cc1N=Cc1ccc(N(C)C)cc1 | inconclusive: 1.26 µM [inhibitor, full curve] |
| Cn1c(=O)c(C(=O)COC(=O)c2cc(C(F)(F)F)nc3c(C(F)(F)F)cccc23)c(N)n(CC2CC2)c1=O | inactive |
| CCOC(=O)c1cccc(NC(=O)CCc2nc3cccnc3n2-c2ccccc2)c1 | inconclusive: 35.5 µM [inhibitor, single point] |
| COc1ccc2[nH]c(=O)c(COC(=O)c3cccs3)cc2c1 | inconclusive: 8.91 µM [inhibitor, partial curve, poor fit] |
| CCOC(=O)c1ccc(N=C2SC(C(=O)NC)CC(=O)N2CCc2ccccc2)cc1 (stereo unspecified) | inconclusive: 8.91 µM [inhibitor, partial curve] |
| CC(C)(C)c1ccc(C(=O)NCCCN2CCN(CCCNC(=O)c3ccc(C(C)(C)C)cc3)CC2)cc1 | inconclusive: 4.11 µM [inhibitor, single point] |
| CCOc1ccc(NC(=S)Nc2ccc(OCC)cc2)cc1 | inconclusive: 1.58 µM [inhibitor, partial curve, poor fit] |
| CC(=O)c1ccc(N(CC(=O)Nc2cc(C)on2)S(=O)(=O)c2ccc(C)cc2)cc1 | inconclusive: 7.94 µM [inhibitor, partial curve] |
| O=C(Nc1ccc(F)cc1)c1cc(S(=O)(=O)N2CCCCC2)cs1 | inconclusive: 23.1 µM [inhibitor, single point] |
| O=C(CCC(=O)N1CCSc2ccccc21)Nc1ccc(Cl)cc1 | inactive |
| CCOc1ccc2nc(NCCNC(=O)Nc3cccc(C)c3)c(C#N)cc2c1 | inconclusive: 20 µM [inhibitor, single point] |
| O=c1oc2ccccc2cc1-c1nnc(NCc2ccco2)s1 | inconclusive: 0.411 µM [activator, partial curve, poor fit] |
| Cc1ccc(SCCNC(=O)c2ccccc2C)cc1 | inconclusive: 22.4 µM [inhibitor, partial curve, poor fit] |
| Cc1cccc(Nc2ncc3c(n2)CC(c2ccco2)CC3=O)c1 (stereo unspecified) | inconclusive: 3.98 µM [inhibitor, full curve] |
| NC(=O)C1(N2CCCCC2)CCN(C2CC(=O)N(Cc3ccc(N4CCCC4=O)cc3)C2=O)CC1 (stereo unspecified) | inconclusive: 6.51 µM [activator, single point] |
| CC1c2cc3c(cc2CCN1C(=O)c1ccc(Cl)cc1)OCCCO3 (stereo unspecified) | inconclusive: 10 µM [inhibitor, partial curve, poor fit] |
| N#C/C(=C\c1cccnc1)c1nc2ccccc2[nH]1 | inactive |
| Cc1ccccc1CC(=O)Nc1ccon1 | inconclusive: 0.794 µM [inhibitor, partial curve] |
| CC1(C)C(C=C(Cl)Cl)C1C(=O)N1CCN(Cc2ccccc2)CC1 (stereo unspecified) | inconclusive: 35.5 µM [inhibitor, single point] |
| CCOC(=O)C(C)n1cnc2c(nnn2Cc2ccc(Cl)cc2)c1=O (stereo unspecified) | inconclusive: 1.83 µM [inhibitor, partial curve, poor fit] |
